# Experimental data taken from US11505580B2 (priority 2019, dated 2022).
# Where no end group is shown, it is not given here.
# Experiment: peptide made by a vendor (Fmoc solid-phase peptide synthesis)
# Details: whole synthesis, HPLC
sequence,measurement,value
EAGSAKELEGDPVAG,purity (crude or final not stated),95% or more
